Measured values as given in publication PMC9956629.
No constants are given. Whether binding was seen depends on the method and setting. In cells and extracts the contact can be indirect. A yes stands for co-enrichment or nearness to the bait. Other partners may have been found.

The chains behind the UniProt entries cited, without tags or fusion partners. Where a name states a change or a piece, a line headed by the entry shows the natural chain unless it says otherwise.
UniProt A0A509AQ61: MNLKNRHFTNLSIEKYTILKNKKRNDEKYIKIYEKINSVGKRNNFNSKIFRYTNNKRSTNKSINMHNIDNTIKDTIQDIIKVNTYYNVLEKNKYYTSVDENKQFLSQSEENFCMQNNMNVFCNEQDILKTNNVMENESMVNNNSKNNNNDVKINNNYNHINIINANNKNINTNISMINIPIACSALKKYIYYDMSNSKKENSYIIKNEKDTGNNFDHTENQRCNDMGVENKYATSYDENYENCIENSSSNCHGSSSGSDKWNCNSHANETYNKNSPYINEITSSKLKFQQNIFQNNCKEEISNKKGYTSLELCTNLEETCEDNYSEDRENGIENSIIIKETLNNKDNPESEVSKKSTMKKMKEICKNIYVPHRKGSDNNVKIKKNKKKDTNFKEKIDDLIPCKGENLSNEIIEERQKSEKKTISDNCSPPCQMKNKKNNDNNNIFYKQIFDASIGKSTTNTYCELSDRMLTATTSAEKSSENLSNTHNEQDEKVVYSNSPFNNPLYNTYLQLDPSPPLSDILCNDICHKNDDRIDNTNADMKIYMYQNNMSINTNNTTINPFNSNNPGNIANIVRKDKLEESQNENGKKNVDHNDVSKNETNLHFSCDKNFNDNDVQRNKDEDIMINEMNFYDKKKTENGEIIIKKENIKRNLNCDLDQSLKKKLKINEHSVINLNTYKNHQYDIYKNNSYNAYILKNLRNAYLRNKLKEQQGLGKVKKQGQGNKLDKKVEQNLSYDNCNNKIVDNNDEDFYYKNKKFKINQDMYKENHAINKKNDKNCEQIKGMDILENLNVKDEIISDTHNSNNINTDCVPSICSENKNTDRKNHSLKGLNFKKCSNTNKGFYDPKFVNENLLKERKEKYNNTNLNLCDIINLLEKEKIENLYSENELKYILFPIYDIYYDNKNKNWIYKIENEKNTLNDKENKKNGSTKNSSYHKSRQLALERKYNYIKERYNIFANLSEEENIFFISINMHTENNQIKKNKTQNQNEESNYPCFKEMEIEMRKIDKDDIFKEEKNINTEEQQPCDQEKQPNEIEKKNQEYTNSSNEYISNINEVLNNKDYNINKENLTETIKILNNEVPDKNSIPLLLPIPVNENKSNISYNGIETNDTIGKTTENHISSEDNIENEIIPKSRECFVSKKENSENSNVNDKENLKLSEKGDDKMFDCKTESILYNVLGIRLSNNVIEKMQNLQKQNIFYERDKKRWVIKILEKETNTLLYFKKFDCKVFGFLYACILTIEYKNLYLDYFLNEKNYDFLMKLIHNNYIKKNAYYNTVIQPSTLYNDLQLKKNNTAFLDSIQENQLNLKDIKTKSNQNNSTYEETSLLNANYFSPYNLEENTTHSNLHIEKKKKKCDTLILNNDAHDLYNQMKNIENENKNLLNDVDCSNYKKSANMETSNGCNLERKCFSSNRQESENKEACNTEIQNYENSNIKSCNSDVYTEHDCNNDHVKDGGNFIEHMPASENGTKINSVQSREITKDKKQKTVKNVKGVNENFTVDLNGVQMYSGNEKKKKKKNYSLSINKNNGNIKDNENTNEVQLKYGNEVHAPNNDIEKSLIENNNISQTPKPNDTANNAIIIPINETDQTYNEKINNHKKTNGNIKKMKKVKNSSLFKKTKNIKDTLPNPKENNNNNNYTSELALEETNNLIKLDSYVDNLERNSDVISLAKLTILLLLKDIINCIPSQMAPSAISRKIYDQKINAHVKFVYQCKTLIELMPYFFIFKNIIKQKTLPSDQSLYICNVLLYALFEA
UniProt A0A509AMA2: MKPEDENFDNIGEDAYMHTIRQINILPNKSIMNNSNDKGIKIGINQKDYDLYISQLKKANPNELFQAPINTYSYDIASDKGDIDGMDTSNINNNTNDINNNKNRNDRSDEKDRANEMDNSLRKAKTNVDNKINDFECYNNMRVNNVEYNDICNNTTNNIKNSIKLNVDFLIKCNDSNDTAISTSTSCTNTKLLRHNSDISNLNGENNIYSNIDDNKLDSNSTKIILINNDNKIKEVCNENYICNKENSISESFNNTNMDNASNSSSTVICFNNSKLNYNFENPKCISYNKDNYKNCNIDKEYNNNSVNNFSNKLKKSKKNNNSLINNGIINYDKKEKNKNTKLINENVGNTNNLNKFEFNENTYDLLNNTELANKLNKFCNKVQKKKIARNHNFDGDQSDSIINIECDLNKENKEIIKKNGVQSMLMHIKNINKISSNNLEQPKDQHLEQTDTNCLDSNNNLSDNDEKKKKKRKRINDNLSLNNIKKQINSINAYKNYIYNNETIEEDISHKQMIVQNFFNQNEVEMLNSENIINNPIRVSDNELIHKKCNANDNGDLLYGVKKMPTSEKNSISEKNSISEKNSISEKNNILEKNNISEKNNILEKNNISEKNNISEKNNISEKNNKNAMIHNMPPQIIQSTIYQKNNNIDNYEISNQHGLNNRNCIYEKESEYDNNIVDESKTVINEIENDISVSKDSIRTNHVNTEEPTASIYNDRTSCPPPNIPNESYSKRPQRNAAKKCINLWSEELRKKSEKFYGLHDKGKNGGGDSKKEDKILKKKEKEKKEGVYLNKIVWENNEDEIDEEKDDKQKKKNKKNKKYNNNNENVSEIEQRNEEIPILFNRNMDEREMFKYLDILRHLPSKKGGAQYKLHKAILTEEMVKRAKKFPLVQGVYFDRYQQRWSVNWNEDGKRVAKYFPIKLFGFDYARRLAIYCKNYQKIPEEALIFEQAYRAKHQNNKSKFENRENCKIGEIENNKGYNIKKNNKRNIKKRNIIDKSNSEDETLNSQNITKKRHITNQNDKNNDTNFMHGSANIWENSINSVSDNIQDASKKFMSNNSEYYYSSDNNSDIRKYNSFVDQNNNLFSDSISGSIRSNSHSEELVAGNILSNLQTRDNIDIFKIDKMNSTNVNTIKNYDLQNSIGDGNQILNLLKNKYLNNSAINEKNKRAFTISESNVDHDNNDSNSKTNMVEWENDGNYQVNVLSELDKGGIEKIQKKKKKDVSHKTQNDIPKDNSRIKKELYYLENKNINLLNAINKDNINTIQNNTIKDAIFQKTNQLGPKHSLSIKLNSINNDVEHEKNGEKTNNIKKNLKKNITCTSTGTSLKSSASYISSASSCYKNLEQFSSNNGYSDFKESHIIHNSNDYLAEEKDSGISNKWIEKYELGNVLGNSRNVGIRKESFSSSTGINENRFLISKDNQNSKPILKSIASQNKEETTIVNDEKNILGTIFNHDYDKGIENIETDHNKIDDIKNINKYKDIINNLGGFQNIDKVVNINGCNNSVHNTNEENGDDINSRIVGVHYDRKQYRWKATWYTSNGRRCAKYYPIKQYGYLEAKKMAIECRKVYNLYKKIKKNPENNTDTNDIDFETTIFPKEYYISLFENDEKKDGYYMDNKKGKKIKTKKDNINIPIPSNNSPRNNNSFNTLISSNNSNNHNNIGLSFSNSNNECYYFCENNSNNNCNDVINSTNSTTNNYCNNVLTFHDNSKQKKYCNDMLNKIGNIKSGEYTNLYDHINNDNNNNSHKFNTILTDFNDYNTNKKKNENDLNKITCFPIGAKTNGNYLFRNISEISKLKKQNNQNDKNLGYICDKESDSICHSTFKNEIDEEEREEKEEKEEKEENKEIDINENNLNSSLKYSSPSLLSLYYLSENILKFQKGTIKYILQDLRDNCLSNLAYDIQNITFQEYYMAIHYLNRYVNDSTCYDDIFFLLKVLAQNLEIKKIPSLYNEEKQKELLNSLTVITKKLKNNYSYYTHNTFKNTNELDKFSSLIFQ

Molecular target: PbAP2-FG2::GFP (GFP-fused PbAP2-FG2) (P. berghei)
Test: affinity purification with mass spectrometry; RIME: gametocyte-enriched parasites fixed with 1% formalin, lysed in SDS lysis buffer, sonicated; anti-GFP polyclonal antibody (ab290) on Protein A magnetic beads, 12 h at 4°C; low-salt and high-salt washes; on-bead trypsin digestion, LC-MS/MS; WT parasites as negative control; four independent experiments; hits unique or more than fivefold enriched against WT

| binding | Substance |
| --- | --- |
| binds | PbAP2R-2 (from UniProt A0A509AQ61) |
| binds | PbAP2-O2 (from UniProt A0A509AMA2 1-1998) |
